The other results are listed elsewhere or left out. The data scatter; read single values as rough.
What was measured:
[1] = compound: ClCC(=O)N[C@@H]1CCCc2ccccc12; assay: log2 mean competition ratio of IA-DTB cysteine labelling (DMSO/compound) (log2 ratio); higher = stronger cysteine engagement by compound; details: treatment time: 4 h, cell line lysate: HEK293T
Protocol: (§1)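 IA-DTB competitive cysteine chemoproteomics in HEK293T RIPA lysate. Lysates were treated with compound 29 or 30 at 50 or 200 µM for 4 h, then IA-DTB (500 µM, 1 h), trypsin-digested, NeutrAvidin-enriched and analysed by diaPASEF. Competition ratio = intensity DMSO / intensity compound (n=4 treated, n=64 DMSO); binding: mean log2 CR ≥ 1 and p ≤ 0.05 plus QC filters. Target is the cysteine site.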

The chains behind the UniProt entries cited, without tags or fusion partners. Where a name states a change or a piece, a line headed by the entry shows the natural chain unless it says otherwise. Residues count along the entry.
UniProt Q8N264: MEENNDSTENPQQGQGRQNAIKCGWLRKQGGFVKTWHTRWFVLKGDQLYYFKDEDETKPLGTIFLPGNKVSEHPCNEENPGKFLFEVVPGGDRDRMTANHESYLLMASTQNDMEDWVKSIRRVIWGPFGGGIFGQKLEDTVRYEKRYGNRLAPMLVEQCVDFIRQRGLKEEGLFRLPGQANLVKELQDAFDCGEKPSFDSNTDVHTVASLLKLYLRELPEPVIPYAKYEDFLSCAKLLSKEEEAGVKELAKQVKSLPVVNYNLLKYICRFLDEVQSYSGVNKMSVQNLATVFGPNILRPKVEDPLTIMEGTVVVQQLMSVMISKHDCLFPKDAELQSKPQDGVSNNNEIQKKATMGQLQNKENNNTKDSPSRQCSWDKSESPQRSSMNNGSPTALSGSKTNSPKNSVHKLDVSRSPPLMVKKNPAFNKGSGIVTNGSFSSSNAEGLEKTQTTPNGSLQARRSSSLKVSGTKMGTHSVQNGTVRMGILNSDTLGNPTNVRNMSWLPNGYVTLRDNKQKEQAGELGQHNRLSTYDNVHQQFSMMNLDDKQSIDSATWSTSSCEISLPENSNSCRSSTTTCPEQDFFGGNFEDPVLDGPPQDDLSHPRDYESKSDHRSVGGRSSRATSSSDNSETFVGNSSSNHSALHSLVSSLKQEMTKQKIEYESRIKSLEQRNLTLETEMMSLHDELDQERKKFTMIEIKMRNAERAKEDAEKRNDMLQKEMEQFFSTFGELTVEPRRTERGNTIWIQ
UniProt O15084: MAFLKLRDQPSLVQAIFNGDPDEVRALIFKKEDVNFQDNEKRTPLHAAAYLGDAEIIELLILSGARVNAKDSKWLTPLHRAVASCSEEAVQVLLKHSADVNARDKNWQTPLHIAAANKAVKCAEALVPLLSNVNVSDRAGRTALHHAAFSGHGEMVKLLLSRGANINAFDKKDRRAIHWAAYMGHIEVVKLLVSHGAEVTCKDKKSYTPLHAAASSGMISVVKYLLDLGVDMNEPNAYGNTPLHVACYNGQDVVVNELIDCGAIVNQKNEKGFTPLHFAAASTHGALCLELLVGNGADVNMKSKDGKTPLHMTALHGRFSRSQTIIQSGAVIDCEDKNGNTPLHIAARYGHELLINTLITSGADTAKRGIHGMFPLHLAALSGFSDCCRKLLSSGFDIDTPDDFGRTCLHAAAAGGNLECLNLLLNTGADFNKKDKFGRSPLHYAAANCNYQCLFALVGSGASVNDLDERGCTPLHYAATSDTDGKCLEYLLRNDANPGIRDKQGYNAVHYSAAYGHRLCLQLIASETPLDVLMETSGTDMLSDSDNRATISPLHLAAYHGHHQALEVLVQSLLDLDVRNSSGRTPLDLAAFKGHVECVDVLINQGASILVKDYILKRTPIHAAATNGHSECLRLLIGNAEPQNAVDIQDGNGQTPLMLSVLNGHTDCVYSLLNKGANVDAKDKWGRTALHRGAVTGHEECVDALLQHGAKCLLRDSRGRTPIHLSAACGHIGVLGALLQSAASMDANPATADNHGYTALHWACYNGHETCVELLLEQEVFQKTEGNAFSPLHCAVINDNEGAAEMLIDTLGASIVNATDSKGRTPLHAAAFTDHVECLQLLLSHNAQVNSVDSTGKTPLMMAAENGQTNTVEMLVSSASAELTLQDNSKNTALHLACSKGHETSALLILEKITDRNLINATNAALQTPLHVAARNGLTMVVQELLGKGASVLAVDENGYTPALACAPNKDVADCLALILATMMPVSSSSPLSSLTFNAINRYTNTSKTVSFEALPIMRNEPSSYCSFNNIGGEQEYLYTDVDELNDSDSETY
UniProt P07741, 123-145: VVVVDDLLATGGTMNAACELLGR
UniProt Q3SXY8: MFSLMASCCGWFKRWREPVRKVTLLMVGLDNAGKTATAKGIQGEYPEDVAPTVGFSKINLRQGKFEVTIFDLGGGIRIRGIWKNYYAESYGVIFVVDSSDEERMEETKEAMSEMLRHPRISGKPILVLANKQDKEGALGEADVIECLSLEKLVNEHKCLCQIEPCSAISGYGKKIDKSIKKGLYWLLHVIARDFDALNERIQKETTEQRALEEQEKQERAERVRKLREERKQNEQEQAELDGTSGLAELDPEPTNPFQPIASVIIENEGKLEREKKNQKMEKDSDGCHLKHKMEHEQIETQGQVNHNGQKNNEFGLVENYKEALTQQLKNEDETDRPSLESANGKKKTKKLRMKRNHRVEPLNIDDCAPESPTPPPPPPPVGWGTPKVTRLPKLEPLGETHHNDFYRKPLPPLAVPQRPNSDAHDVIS
UniProt Q86XL3, 674-698: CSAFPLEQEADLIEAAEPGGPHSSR
UniProt A7KAX9, 1353-1385: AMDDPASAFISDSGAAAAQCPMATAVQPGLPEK
UniProt P27695: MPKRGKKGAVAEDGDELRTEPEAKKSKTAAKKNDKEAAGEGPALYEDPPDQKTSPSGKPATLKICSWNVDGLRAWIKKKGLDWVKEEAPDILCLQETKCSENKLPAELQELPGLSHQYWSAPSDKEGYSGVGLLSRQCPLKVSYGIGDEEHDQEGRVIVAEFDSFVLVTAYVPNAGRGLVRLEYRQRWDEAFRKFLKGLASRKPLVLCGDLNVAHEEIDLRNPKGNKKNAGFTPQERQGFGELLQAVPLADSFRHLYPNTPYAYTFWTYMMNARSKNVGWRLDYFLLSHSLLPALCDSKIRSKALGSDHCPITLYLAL
UniProt P63010: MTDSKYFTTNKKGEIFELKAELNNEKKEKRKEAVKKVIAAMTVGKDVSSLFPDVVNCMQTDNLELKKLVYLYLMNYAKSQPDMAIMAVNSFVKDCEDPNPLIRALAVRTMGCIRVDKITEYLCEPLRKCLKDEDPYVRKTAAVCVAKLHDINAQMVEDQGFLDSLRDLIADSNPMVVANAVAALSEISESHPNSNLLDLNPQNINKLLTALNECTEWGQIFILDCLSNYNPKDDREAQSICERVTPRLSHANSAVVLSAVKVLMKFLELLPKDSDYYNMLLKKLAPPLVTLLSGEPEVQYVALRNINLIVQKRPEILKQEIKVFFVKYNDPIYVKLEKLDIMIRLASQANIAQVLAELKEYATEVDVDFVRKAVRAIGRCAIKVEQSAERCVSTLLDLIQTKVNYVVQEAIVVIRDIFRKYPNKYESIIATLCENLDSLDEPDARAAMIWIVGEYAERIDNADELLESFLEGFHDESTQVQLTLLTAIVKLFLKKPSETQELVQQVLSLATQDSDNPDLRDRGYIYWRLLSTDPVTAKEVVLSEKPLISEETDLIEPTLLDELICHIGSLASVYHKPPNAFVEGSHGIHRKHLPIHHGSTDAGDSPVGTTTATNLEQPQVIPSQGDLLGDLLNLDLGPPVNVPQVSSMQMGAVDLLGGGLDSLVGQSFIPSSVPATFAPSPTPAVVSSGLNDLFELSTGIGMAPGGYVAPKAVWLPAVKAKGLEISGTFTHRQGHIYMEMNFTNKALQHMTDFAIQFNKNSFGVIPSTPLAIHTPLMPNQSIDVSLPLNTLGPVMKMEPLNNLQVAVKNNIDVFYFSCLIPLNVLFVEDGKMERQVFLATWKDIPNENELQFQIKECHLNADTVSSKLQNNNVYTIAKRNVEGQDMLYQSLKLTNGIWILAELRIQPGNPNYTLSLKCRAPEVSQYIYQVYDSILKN
UniProt O75179: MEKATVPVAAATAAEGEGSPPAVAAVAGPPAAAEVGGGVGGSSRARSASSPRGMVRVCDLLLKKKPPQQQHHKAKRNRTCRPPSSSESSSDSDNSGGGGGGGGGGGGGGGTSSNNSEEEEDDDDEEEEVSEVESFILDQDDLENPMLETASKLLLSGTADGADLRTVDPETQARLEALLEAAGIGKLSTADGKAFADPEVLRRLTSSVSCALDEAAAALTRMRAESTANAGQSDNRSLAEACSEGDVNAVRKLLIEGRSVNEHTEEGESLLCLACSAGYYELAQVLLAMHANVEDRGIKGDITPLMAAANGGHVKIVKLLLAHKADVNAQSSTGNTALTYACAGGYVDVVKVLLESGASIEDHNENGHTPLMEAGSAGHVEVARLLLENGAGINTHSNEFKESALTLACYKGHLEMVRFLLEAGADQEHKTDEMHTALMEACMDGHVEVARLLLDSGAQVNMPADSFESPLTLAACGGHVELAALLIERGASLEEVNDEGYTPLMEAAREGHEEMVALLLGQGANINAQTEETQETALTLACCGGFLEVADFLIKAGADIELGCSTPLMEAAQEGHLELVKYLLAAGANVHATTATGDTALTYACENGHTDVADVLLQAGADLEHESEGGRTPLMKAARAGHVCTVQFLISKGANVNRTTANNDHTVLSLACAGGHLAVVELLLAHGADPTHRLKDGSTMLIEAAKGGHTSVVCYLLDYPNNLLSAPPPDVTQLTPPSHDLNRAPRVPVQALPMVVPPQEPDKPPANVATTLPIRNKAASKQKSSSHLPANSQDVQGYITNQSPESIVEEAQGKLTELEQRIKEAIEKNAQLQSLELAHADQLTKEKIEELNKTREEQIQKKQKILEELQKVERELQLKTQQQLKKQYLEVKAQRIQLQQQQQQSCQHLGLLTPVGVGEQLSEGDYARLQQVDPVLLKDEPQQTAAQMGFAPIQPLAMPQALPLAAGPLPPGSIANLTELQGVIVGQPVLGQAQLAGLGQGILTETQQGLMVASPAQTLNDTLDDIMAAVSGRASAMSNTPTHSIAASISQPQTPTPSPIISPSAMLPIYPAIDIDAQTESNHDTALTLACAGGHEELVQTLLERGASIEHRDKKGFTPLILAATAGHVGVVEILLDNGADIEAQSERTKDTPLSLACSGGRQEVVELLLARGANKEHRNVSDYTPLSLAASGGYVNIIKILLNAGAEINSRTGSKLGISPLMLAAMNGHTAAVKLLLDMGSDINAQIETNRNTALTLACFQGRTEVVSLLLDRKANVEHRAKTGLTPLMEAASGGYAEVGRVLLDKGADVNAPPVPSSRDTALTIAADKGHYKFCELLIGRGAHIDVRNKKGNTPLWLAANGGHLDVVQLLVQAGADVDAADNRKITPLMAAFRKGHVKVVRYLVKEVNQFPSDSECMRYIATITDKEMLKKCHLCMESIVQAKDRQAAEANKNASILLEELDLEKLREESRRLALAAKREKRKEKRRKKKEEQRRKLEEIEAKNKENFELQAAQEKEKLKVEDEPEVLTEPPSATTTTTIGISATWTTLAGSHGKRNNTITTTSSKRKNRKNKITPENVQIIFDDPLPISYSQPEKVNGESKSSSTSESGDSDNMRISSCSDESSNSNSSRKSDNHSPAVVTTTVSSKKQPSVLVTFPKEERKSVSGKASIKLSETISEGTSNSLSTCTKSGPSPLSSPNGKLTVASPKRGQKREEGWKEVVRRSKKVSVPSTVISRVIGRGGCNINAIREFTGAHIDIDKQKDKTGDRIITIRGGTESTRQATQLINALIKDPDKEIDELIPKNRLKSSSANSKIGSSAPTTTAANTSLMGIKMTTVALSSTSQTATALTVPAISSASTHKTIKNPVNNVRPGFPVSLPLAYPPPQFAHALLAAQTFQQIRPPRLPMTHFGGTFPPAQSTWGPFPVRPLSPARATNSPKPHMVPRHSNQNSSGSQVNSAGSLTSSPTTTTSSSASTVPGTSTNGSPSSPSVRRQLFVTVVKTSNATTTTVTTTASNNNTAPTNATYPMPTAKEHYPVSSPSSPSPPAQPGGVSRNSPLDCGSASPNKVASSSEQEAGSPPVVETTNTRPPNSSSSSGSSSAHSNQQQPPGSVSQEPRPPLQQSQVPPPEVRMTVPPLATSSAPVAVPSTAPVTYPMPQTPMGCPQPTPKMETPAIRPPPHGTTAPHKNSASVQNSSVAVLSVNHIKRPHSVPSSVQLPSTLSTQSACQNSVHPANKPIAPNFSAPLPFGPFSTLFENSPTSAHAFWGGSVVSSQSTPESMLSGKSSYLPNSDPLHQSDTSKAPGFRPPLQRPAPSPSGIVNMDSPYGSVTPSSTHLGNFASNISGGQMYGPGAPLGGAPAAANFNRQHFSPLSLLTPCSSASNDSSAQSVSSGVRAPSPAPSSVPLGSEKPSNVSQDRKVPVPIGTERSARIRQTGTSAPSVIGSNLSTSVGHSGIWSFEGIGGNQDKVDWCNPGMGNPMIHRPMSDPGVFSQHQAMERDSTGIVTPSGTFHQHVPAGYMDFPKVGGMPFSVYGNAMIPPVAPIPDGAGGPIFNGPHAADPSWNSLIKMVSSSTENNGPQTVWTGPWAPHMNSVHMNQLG

[2] = compound: ClCC(=O)N[C@H]1CCCc2ccccc12; assay: as above; details: treatment time: 4 h, cell line lysate: HEK293T
Protocol: as §1

Target | log2 mean competition ratio ([1]; 50 µM) | log2 mean competition ratio ([1]; 200 µM) | log2 mean competition ratio ([2]; 50 µM) | log2 mean competition ratio ([2]; 200 µM)
AP1B1 C866 (UniProt Q10567) | -0.18 | -0.0589 | -0.527 | 0.141
ARHGAP24 C234 (UniProt Q8N264) | -0.0819 | -0.0316 | -0.163 | -0.0362
ANKRD28 C85 (UniProt O15084) | -0.109 | -0.397 | -0.604 | -0.446
APRT C140 (UniProt P07741) | 0.0191 | 0.219 | -0.0353 | -0.308
ARL13B C287 (UniProt Q3SXY8) | -0.176 | -0.348 | -0.00678 | 0.0361
ANKS6 C268 (UniProt Q68DC2) | -0.233 | -0.104 | -0.0595 | 0.055
ANKLE2 C91 (UniProt Q86XL3) | 0.194 | -0.0406 | 0.0855 | -0.134
ARAP1 C900 (UniProt Q96P48) | -0.238 | 0.129 | -0.0312 | 0.339
ANKRD11 C146 (UniProt Q6UB99) | -0.368 | -0.152 | -0.0583 | -0.505
ARHGAP32 C1372 (UniProt A7KAX9) | -0.359 | -0.452 | 0.782 | -0.378
ARPC1B C227 (UniProt O15143) | -0.122 | 0.306 | -0.144 | 0.0102
APEX1 C93 (UniProt P27695) | -0.222 | 0.0412 | -0.27 | -0.0206
APC C995 (UniProt P25054) | 0.355 | -0.0185 | -0.372 | 0.383
AP1G1 C353 | -0.103 | -0.515 | 0.566 | -0.196
AP2B1 C391 (UniProt P63010) | 0.0761 | -0.337 | -0.303 | -0.221
ANKLE2 C286 (UniProt Q86XL3) | 0.0309 | -0.0438 | -0.249 | 0.0401
ASCC3 C225 (UniProt Q8N3C0) | -0.13 | -0.213 | -0.153 | -0.103
ARHGAP11A C791 (UniProt Q6P4F7) | -0.342 | -0.0833 | -0.233 | 0.0326
ANKLE2 C674 (UniProt Q86XL3) | 0.545 | -0.215 | 0.419 | 0.09
ANKRD17 C210 (UniProt O75179) | -0.0269 | 0.275 | -0.291 | 0.25
ASCC3 C1906 (UniProt Q8N3C0) | -0.312 | -0.678 | -0.537 | -0.475
ASH1L C157 | -0.425 | 0.278 | -0.427 | 0.179

In a second layout: entries from further up
Target	log2 mean competition ratio ([1]; 50 µM)	log2 mean competition ratio ([1]; 200 µM)	log2 mean competition ratio ([2]; 50 µM)	log2 mean competition ratio ([2]; 200 µM)
AP1B1 C866 (UniProt Q10567)	-0.18	-0.0589	-0.527	0.141
APC C995 (UniProt P25054)	0.355	-0.0185	-0.372	0.383

Reference: the supplement of paper PMC11732987, “Enantioselective OTUD7B fragment discovery through chemoproteomics screening and high-throughput optimisation” (Communications Chemistry, 2025)
